# Source: patent publication US20210330692, “CCR7 APTAMERS AND USES THEREOF” (CITY OF HOPE, published 2021)
# By UniProt entry, the sequences of proteins in these tests, tags left out. Residues count along the entry.
# UniProt P32248, 25-378: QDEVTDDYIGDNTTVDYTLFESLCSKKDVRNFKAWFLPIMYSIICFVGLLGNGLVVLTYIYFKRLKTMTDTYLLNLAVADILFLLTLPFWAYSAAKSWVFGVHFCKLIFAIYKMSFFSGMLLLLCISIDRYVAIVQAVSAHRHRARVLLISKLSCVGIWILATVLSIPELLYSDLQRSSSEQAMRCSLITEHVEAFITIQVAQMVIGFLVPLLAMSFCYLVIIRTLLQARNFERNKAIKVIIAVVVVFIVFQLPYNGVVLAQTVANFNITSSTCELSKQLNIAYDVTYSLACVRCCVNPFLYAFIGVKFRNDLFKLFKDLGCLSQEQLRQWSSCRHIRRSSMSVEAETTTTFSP
# Where cells or extracts were used, other partners may take part.
# Molecular target: CCR7 (UniProt P32248)
# Test: flow cytometry
# Details: dose-dependent, protein on the cell surface
Sequence,binding result,binding result (highest affinity of the aptamers tested)
GGGAGGACGAUGCGGAAUUCGUCAAAGUCGUUUAUUUCGUCUGUGCAGACGACUCGCCCGA [C-2A],binds,–
GGGAGGACGAUGCGGUUUCGUCCUGAGUUCGUGUCCUCGUCUGUGCAGACGACUCGCCCGA [C-1A],–,binds
